Reference: ChEMBL document CHEMBL5126625, “Discovery of AZD4831, a Mechanism-Based Irreversible Inhibitor of Myeloperoxidase, As a Potential Treatment for Heart Failure with Preserved Ejection Fraction” (J Med Chem, 2022)
Values after ≈ are worked out from the molar mass of the structure shown.

Tests used:
[1] = rat, in vivo, po, 24 h
[2] = Lipophilicity, log D of the compound; conditions: octanol/water
physchem = conditions: buffer, pH 7.4

C[C@@H](N)c1cc(Cl)ccc1Cn1c(=S)[nH]c(=O)c2[nH]cnc21
CL [1]: 20 mL/min/kg | logD [2]: 0.7 | solubility thermodynamic at 18 h (physchem): 880 µM (≈ 296 µg/mL)
